{"source": "patent US4923813A", "about": "“Monoclonal antibody-based immunoassay for cyclic DNA adducts resulting from exposure to crotonaldehyde or acrolein” (American Health Foundation, priority 1988, dated 1990)", "key": {"[1]": {"target": "monoclonal antibody CA2", "test": "competitive ELISA, inhibition of binding of antibody CA2 to structure 1a,b-KLH conjugate", "set-up": "species or system mouse", "details": "plate coated with structure 1a,b-KLH conjugate", "text": "(§1) Screening for Antibody Production. In order to screen the fused cells for the production of antibody specific for the cyclic deoxyguanosine adducts, an enzyme-linked immunosorbent assay (\"ELISA\") may be used. ELISA links soluble antigens to insoluble antibodies or soluble antibodies to solid phase antigens in a manner that allows both immunolgical and enzymatic activity to be retained.\n(§2) ELISA techniques for antigen or antibody quantification are well-known to the art. By way of example, wells of a 96-well polystyrene ELISA plate may be coated with 10 ng of structure a, b-KLH conjugate, diluted in Phosphate buffered saline (PBS), for 1 h at room temperature. The wells may be washed twice with PBS containing 0.1% Tween 20 and twice with distilled H2 O. From this point all reagents may be diluted in PBS containing 0.1% bovine serum albumin (\"BSA\"). Wells are filled with 50 μl of PBS-BSA followed by 50 μl of culture supernatant and incubated at room temperature for 1 h. For competitive ELISA, adduct standards or test samples are mixed with the monoclonal antibody and added to the well. […] In quantitative experiments the concentration of unknown samples may be determined by comparison to a standard curve relating the log of the inhibitor concentration to the logit of the percentage of inhibition [formula] […]"}, "[2]": {"system": "the four antibodies (CA1, CA2, CA3, CA4)", "test": "competitive ELISA, reactivity of the four antibodies", "format": "binding, mouse", "details": "all four antibodies; O6-methyldeoxyguanosine: with the exception of CA3", "text": "as §1, §2"}, "[3]": {"target": "monoclonal antibody CA1", "test": "competitive ELISA, inhibition of binding of antibody CA1 to structure 1a,b-KLH conjugate", "set-up": "species or system mouse", "details": "plate coated with structure 1a,b-KLH conjugate", "text": "as §1, §2"}, "[4]": {"target": "monoclonal antibody CA4", "test": "competitive ELISA, inhibition of binding of antibody CA4 to structure 1a,b-KLH conjugate", "set-up": "species or system mouse", "details": "plate coated with structure 1a,b-KLH conjugate", "text": "as §1, §2"}, "[5]": {"target": "monoclonal antibody CA3", "test": "competitive ELISA, inhibition of binding of antibody CA3 to structure 1a,b-KLH conjugate", "set-up": "species or system mouse", "details": "plate coated with structure 1a,b-KLH conjugate", "text": "as §1, §2"}}, "note": "At least one structure is not confirmed: it was looked up by name or label, or the drawing left a doubt.", "data": [{"smiles": "C[n+]1cn([C@@H]2O[C@H](CO)[C@@H](O)[C@H]2O)c2nc(N)[nH]c(=O)c21", "note": "[7-Methylguanosine, reference compound]", "values": [{"measurement": "pmol of compound needed for 50% inhibition of binding in the competitive ELISA, CA2", "setting": "[1]", "result": "> 50,000 pmol"}, {"measurement": "reactivity / cross-reactivity with the four antibodies", "setting": "[2]", "result": "unreactive"}, {"measurement": "pmol of compound needed for 50% inhibition of binding in the competitive ELISA, CA1", "setting": "[3]", "result": "> 50,000 pmol"}, {"measurement": "pmol of compound needed for 50% inhibition of binding in the competitive ELISA, CA4", "setting": "[4]", "result": "> 50,000 pmol"}, {"measurement": "pmol of compound needed for 50% inhibition of binding in the competitive ELISA, CA3", "setting": "[5]", "result": "> 50,000 pmol"}]}]}
